Experimental data: patent publication US20120065065A1, “HERBICIDALLY ACTIVE PYRIDYLKETOSULTAMS” (BAYER CROPSCIENCE AG, priority 2010, published 2012)
Some of these results come from one statement about several compounds together.

Tests used:
Assay in all cases: Post-emergence herbicidal action against harmful plants
Assay type in all cases: in vivo
Conditions in all cases: three-leaf stage, application rate 1280 grams per hectare, scored visually after 3 to 4 weeks in greenhouse
Veronica persica = tested on: Veronica persica
Matricaria inodora = tested on: Matricaria inodora
Stellaria media = tested on: Stellaria media

CN(C)C(=O)OC1=C(c2ccccc2C(F)(F)F)S(=O)(=O)N(CC(F)F)c2ncccc21 [Ib-4, 1-(2,2-difluoroethyl)-2,2-dioxido-3-[2-(trifluoromethyl)phenyl]-1H-pyrido[2,3-c][1,2]thiazin-4-yl dimethylcarbamate]
at least 80%: activity against Veronica persica (Veronica persica) | activity against Matricaria inodora (Matricaria inodora) | activity against Stellaria media (Stellaria media)
